Patent US20240238445A1, “INHIBITORS AND USES THEREOF” (NEURACLE SCIENCE CO., LTD., priority 2021, published 2024)
No constants are given. Whether binding was seen depends on the method and setting. In cells and extracts the contact can be indirect. Some binding calls cover weakened binding; strength is not graded here. Sequences can lack the tags named with a protein.

Sequences of proteins named here, by UniProt entry; tags and fusion partners are left off. A change or cut given only in a name is not applied to a line headed by its entry.
UniProt Q7Z5A7: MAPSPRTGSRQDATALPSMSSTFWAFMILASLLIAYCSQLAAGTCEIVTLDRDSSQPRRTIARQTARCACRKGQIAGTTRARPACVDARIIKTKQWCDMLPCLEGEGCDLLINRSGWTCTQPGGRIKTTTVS

Target: FAM19A5 protein isoform 1 (human) (UniProt Q7Z5A7)
Assay: co-IP and immunofluorescence, co-transfected HEK293 cells

B1: FLAG-tagged LRRC4B protein (receptor)
chain: AGGGGVAVTSAAGGGSPPATSCPVACSCSNQASRVICTRRDLAEVPASIPVNTRYLNLQENGIQVIRTDTFKHLRHLEILQLSKNLVRKIEVGAFNGLPSLNTLELFDNRLTTVPTQAFEYLSKLRELWLRNNPIESIPSYAFNRVPSLRRLDLGELKRLEYISEAAFEGLVNLRYLNLGMCNLKDIPNLTALVRLEELELSGNRLDLIRPGSFQGLTSLRKLWLMHAQVATIERNAFDDLKSLEELNLSHNNLMSLPHDLFTPLHRLERVHLNHNPWHCNCDVLWLSWWLKETVPSNTTCCARCHAPAGLKGRYIGELDQSHFTCYAPVIVEPPTDLNVTEGMAAELKCRTGTSMTSVNWLTPNGTLMTHGSYRVRISVLHDGTLNFTNVTVQDTGQYTCMVTNSAGNTTASATLNVSAVDPVAAGGTGSGGGGPGGSGGVGGGSGGYTYFTTVTVETLETQPGEEALQPRGTEKEPPGPTTDGVWGGGRPGDAAGPASSSTTAPAPRSSRPTEKAFTVPITDVTENALKDLDDVMKTTKIIIGCFVAITFMAAVMLVAFYKLRKQHQLHKHHGPTRTVEIINVEDELPAASAVSVAAAAAVASGGGVGGDSHLALPALERDHLNHHHYVAAAFKAHYSSNPSGGGCGGKGPPGLNSIHEPLLFKSGSKENVQETQI
binding: binds
